From publication PMC6069116 come the findings set out here.

Assay [1] addresses HrpG from Pseudomonas syringae pv. phaseolicola (Pseudomonas syringae pv. phaseolicola). Nature of the assay: pull-down.
Assay [2] shares this target. Nature of the assay: pull-down; […]; 20 mM Tris pH 8.0, 50 mM NaCl; […].

These are yes or no findings as the source states them, for the method shown. Binding seen in cells or lysates may run through a third protein. Binding can be weak; no strength is given.

B1: HrpJ from Pseudomonas syringae pv. phaseolicola (protein, UniProt Q05395 1-346)
chain: MKIVAPPTLPIRPVAPIRAITPAARAIPGSGLPDEKGTSSLQVSRFAAALVQHSRILRERELIASRNALQSRAVKLGELYQLLMSTSDTGLDNAARLLRKKLLQDNDADLEQVLEFADGDAAKAHVVLQAARKQAEDDGAEEEYAALTQTLKHLRRRFGPRARAGINTARAFGRQNIDNKRRTALRNLYGVAVSGQPNVTGLIEALIGEQQEPGEFDLNLRDMRRAIADDLSAITPSASHEQLRTLMHGLTTARHVTTLLRGCEHLLGRMRKKNPKLTVDPPAFLKHMLTLTANGMNVNQTLQLTQHIGGNKLEHQLAFLNGLRADADATADPALAGPEKPPGRAE
As for B1, the binding result in assay [1] and in assay [2] was “binds” each time.
